Reference: article PMC9276759
No constants are given. Whether binding was seen depends on the method and setting. Binding seen in cells or lysates may run through a third protein. Some results given as binding are weak or reduced against the parent protein; the word gives no strength.

The chains behind the UniProt entries cited, without tags or fusion partners.
UniProt Q9Z2X8: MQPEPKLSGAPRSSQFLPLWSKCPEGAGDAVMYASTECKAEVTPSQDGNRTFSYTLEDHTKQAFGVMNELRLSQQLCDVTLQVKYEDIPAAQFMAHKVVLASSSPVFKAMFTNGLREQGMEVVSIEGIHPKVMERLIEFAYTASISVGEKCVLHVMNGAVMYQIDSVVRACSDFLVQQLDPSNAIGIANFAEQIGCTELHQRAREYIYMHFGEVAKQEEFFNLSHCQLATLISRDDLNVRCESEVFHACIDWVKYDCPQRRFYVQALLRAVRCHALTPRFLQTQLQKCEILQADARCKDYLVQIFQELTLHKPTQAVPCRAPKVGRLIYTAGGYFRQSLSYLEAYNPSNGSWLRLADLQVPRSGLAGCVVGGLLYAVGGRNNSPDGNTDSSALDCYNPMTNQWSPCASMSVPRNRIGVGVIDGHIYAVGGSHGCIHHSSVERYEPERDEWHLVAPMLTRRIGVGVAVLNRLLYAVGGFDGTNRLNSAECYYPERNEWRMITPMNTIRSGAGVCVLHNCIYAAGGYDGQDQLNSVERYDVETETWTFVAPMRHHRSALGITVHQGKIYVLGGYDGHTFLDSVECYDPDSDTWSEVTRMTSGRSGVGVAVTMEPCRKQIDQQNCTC
UniProt Q6P5H2: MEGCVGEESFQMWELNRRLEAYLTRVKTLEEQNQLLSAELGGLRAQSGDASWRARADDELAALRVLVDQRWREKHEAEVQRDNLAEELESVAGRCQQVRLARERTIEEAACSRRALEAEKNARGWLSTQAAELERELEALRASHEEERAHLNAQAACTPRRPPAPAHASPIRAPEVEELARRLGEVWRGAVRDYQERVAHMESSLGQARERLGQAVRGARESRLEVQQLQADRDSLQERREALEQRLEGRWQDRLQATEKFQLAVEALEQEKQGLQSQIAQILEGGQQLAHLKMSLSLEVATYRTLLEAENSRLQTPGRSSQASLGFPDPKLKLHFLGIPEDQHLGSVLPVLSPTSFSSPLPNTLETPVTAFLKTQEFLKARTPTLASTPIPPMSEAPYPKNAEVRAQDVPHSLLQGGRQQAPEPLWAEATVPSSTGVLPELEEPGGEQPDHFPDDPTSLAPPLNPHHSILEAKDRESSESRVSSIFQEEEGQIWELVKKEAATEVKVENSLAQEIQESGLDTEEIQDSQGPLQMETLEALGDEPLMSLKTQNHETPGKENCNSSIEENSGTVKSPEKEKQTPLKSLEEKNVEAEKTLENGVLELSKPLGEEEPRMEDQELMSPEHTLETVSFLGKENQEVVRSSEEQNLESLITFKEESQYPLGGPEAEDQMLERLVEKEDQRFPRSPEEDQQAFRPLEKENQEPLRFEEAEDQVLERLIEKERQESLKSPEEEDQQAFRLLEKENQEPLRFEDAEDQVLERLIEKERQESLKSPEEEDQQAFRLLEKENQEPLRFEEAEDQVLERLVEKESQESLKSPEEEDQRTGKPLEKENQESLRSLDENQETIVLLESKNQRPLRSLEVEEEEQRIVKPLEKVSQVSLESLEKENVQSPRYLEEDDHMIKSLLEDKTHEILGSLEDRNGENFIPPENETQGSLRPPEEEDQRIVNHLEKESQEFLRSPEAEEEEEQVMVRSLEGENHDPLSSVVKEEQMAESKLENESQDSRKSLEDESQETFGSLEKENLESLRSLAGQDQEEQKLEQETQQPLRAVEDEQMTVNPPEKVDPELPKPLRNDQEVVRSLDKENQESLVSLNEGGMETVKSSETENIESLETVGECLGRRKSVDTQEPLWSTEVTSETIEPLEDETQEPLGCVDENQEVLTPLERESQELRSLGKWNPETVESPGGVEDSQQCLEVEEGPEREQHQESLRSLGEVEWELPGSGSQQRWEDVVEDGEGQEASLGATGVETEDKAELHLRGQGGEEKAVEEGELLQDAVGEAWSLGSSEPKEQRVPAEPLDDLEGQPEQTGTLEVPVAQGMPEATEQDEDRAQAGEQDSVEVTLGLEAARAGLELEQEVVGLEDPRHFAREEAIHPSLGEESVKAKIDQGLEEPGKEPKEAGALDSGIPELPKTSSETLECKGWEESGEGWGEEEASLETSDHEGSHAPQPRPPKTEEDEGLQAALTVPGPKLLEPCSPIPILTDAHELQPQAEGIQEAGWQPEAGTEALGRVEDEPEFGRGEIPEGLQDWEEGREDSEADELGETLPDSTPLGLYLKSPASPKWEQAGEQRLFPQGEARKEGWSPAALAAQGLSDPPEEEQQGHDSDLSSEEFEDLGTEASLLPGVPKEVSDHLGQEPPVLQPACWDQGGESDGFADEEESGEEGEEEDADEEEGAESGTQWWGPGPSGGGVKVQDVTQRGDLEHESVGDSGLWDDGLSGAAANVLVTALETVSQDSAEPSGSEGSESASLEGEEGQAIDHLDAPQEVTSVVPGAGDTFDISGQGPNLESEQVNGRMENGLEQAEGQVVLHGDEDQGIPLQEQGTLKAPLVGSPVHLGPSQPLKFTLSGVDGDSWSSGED

Molecular target: Kelch-like ECH-associated protein 1 (mouse (endogenous in primary SLCs)) (UniProt Q9Z2X8)
Test: co-IP; lysates of primary SLCs from young and aged mice; LP2 lysis buffer (20 mM Tris-HCl pH 7.7, 100 mM NaCl, 10 mM NaF, 20 mM β-glycerophosphate, 5 mM MgCl2, 0.1% Triton X-100, 5% glycerol) with benzonase; antibody-carrying beads 4–12 h at 4 °C; Western blot; precipitating antibody not stated in the …

binding: binds
Substance: Nestin (from UniProt Q6P5H2 1-1864)
